{"source": "PubChem BioAssay AID1259425 – University of Nebraska Medical Center – 2018", "purpose": "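Find knockdowns that reproduce the gene expression pattern seen when KSR1 is lost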 (primary screen)", "system": "HCT116 human colon cancer cells", "knock-down reagent": "siRNA pool against human genes, 50 nM siRNA", "read-out": "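After 50 nM siRNA pool, branched-DNA assay measures six marker transcripts per well, minus blank, normalised to the geometric mean of two housekeeping transcripts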", "scale": "BNIP3L mRNA: higher = more BNIP3L transcript after knockdown", "note": "The whole screen tested about 14,000 reagents; below is a part drawn at random. Further read-outs or replicates are left out here. Reagent sequences are not shown. Not stated in the record: the time to read-out."}
{"target gene":"ANKRD39 (GeneID 51239)","BNIP3L mRNA, set 1":0.124}
{"target gene":"PDE6D (GeneID 5147)","BNIP3L mRNA, set 1":0.0542}
{"target gene":"RBM15B (GeneID 29890)","BNIP3L mRNA, set 1":0.107}
{"target gene":"TAX1BP3 (GeneID 30851)","BNIP3L mRNA, set 1":0.19}
{"target gene":"TNFRSF1B (GeneID 7133)","BNIP3L mRNA, set 1":0.107}
{"target gene":"GALR3 (GeneID 8484)","BNIP3L mRNA, set 1":0.141}
{"target gene":"KIAA0040 (GeneID 9674)","BNIP3L mRNA, set 1":0.085}
{"target gene":"TRNT1 (GeneID 51095)","BNIP3L mRNA, set 1":0.103}
{"target gene":"KLF1 (GeneID 10661)","BNIP3L mRNA, set 1":0.127}
{"target gene":"JKAMP (GeneID 51528)","BNIP3L mRNA, set 1":0.124}
{"target gene":"PCCA (GeneID 5095)","BNIP3L mRNA, set 1":0.0792}
{"target gene":"GPRIN2 (GeneID 9721)","BNIP3L mRNA, set 1":0.0932}
{"target gene":"NAT8B (GeneID 51471)","BNIP3L mRNA, set 1":0.0968}
{"target gene":"AGER (GeneID 177)","BNIP3L mRNA, set 1":0.119}
{"target gene":"MYH11 (GeneID 4629)","BNIP3L mRNA, set 1":0.0989}
{"target gene":"TGM2 (GeneID 7052)","BNIP3L mRNA, set 1":0.0837}
{"target gene":"AHCY (GeneID 191)","BNIP3L mRNA, set 1":0.0907}
{"target gene":"MINDY2 (GeneID 54629)","BNIP3L mRNA, set 1":0.146}
{"target gene":"TMEM134 (GeneID 80194)","BNIP3L mRNA, set 1":0.175}

In a second layout: results already given
| target gene | BNIP3L mRNA, set 1 |
| --- | --- |
| RBM15B (GeneID 29890) | 0.107 |
| TAX1BP3 (GeneID 30851) | 0.19 |
